From patent publication US20240082398A1, “METHODS OF PREPARING AND EXPANDING TYPE I INNATE LYMPHOID CELLS AND THERAPEUTIC USES THEREOF” (City of Hope, priority 2021, published 2024)

Test system: mouse LSCs
Assay: RNA-seq of LSCs after ILC1 co-culture or IFN-γ treatment
Type: cell-based
Details: vs LSC alone, 3 days
Protocol: For mouse ILC1 RNA-sequencing, mouse ILC1s were sorted from the liver of normal mice or mice with AML using BD FACSAria™ Fusion. […] Total RNA was isolated from ILC1s or LSCs using a miRNeasy mini kit (QIAGEN). PolyA RNA-seq was performed in the Integrative Genomics Core of City of Hope National Medical Center. SMART-Seq® Ultra Low Input RNA Kit for Sequencing-v4 (Takara Bio) was used for getting double-strand cDNA from each sample with 2 ng of input total RNA. The resulting cDNA was sheared using a Covaris LE220 sonicator. The sheared DNA was used for to prepare a sequencing library, using a KAPA HyperPrep Kit. The final libraries were quantified using the Qubit Assay Kit (Thermo Fisher Scientific) and Bioanalyzer (Agilent). Sequencing was performed using the single-read mode of 51 cycles of read1 and 7 cycles of index read with V4 reagents on a Hiseq 2500 system (Illumina). Real-time analysis (RTA) 2.2.38 software was used to process the image analysis and base calling.
2,000 mouse LSCs were co-cultured with 1,000 ILC1s or treated with 1 ng/ml IFN-γ for 3 days, and then the LSCs were sorted using BD FACSAria Fusion. Total RNA of LSCs were isolated using miRNeasy mini kit (QIAGEN). […] The final libraries were quantified with qubit and bioanalyzer. The sequencing was performed with the single read mode of 51 cycles of read1 and 7 cycles of index read with V4 reagents on Hiseq2500. […]

With “recombinant murine IFN-γ: animal-free recombinant murine IFN-γ cytokine” the “significantly downregulated LSC genes” value was 82 genes and the “significantly upregulated LSC genes” value was 320 genes.
